The values that follow come from publication PMC6391914.

Protein sequences, listed by entry. Tags and fused reporters are not part of them. Residues count along the entry.
UniProt P63279: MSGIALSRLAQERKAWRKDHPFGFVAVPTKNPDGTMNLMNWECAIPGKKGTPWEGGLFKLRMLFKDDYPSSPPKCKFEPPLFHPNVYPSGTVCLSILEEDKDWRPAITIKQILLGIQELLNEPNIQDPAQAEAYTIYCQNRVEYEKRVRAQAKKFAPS
UniProt P55854, residues 1-92: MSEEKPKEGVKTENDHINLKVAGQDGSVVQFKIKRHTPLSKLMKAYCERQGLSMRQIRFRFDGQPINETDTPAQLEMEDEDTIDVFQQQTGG

The target in the assay is GST-UBC9 (UniProt P63279). The assay is described as follows: pull-down; both purified.

These are yes or no findings as the source states them, for the method shown. Some results given as binding are weak or reduced against the parent protein; the word gives no strength.

Take His6-SUMO-3 (from UniProt P55854 1-92): the binding result is reported as “binds”.
